# Measurements published in PMC8266800.
# These are yes or no findings as the source states them, for the method shown. In cells and extracts the contact can be indirect. Some results given as binding are weak or reduced against the parent protein; the word gives no strength. Tags and fused reporters may be left off the sequences shown.
# Target: T1, ANXA6-Flag (annexin A6 with Flag tag, exosomal) (UniProt P08133)
# T1 sequence: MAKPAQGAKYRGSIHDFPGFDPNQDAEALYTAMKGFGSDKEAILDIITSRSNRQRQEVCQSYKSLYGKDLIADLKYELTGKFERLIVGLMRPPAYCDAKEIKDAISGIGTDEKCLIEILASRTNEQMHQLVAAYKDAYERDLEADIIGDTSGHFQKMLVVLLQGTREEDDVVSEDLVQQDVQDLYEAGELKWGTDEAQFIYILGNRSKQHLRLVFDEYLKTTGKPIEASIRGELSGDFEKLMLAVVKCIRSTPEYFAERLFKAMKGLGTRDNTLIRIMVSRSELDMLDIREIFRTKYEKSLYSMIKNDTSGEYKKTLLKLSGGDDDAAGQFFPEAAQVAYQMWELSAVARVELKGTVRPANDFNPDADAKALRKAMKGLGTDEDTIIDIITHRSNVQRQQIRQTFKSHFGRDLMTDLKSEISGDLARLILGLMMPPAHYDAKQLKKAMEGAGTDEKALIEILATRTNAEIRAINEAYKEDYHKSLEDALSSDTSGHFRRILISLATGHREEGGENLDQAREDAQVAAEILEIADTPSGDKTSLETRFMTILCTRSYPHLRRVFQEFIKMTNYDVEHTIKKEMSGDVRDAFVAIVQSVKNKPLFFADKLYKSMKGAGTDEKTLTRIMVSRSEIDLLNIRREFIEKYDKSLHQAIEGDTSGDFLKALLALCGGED
# Experiment: co-IP; lysates (RIPA buffer) of MDA-231 cells treated with 231-A6-Flag-exo; IP with anti-Flag, anti-ANXA6 or anti-EGFR antibody or IgG control on protein A agarose, 4 °C; western blot for ANXA6, Flag and EGFR
substance,measurement,value
"EGFR (endogenous, MDA-231 cells) (from UniProt P00533 25-1210) (receptor)",binding,binds
